Experimental data from patent publication US6723896B1, “Inducible site-specific recombination for the activation and removal of transgenes in transgenic plants” (The Rockefeller University, priority 1999, dated 2004).
For at least one compound, name, drawing or mass did not settle the structure.

Test system: transgenic Arabidopsis plants harboring the GVG-Cre/lox-luc transgene
Assay: DEX-inducible site-specific recombination monitored by luciferase (LUC) activity in leaves
Assay type: in vivo, Arabidopsis thaliana
Details: 20 μM DEX painted onto one leaf of 2-week-old transgenic seedlings; 6-12 hours; luciferin, cooled CCD camera

With C[C@@H]1C[C@H]2[C@@H]3CCC4=CC(=O)C=C[C@]4(C)[C@@]3(F)[C@@H](O)C[C@]2(C)[C@@]1(O)C(=O)CO [DEX, dexamethasone] the “site-specific recombination (luciferase activity sectors) in leaves” value was “induces site-specific recombination”.
